Measured values from the supplement of paper PMC12819154, “High-throughput peptide-centric local stability assay extends protein–ligand identification to membrane proteins, tissues and bacteria” (Nature Structural & Molecular Biology, 2025).
The list shows a part of the results. Most entries show no effect beyond the scatter of the controls.

Amino acid sequences for entries named in this document (tags omitted). A change or cut given only in a name is not applied to a line headed by its entry.
UniProt Q92841: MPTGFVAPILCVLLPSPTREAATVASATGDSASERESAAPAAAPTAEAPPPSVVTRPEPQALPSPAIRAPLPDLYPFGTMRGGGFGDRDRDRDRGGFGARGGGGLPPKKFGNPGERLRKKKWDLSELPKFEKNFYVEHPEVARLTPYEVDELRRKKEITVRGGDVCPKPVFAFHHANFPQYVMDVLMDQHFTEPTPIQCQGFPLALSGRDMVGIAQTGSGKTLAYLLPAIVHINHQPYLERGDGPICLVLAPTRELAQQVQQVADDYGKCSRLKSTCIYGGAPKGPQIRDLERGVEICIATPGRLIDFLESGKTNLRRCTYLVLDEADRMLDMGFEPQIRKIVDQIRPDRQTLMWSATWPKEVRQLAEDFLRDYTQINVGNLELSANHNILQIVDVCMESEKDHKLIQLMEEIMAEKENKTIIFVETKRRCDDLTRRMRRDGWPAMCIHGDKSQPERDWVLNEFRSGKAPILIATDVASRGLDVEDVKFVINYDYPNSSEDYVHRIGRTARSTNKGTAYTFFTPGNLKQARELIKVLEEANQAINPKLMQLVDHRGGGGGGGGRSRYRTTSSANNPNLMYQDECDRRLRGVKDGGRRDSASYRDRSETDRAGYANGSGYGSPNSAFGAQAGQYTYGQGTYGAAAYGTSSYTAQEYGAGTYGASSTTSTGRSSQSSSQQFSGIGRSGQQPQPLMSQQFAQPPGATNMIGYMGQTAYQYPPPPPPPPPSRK
UniProt Q969W8: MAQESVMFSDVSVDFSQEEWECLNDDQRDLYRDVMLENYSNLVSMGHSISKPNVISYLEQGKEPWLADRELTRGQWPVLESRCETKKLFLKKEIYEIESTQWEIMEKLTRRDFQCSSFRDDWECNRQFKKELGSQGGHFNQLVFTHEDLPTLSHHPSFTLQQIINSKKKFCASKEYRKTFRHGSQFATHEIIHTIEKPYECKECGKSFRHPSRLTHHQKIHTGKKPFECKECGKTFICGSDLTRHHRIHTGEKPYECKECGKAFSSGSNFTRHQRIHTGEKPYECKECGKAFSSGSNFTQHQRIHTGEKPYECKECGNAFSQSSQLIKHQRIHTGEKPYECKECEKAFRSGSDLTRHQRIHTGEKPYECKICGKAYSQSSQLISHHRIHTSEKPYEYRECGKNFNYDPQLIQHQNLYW
UniProt Q96C24: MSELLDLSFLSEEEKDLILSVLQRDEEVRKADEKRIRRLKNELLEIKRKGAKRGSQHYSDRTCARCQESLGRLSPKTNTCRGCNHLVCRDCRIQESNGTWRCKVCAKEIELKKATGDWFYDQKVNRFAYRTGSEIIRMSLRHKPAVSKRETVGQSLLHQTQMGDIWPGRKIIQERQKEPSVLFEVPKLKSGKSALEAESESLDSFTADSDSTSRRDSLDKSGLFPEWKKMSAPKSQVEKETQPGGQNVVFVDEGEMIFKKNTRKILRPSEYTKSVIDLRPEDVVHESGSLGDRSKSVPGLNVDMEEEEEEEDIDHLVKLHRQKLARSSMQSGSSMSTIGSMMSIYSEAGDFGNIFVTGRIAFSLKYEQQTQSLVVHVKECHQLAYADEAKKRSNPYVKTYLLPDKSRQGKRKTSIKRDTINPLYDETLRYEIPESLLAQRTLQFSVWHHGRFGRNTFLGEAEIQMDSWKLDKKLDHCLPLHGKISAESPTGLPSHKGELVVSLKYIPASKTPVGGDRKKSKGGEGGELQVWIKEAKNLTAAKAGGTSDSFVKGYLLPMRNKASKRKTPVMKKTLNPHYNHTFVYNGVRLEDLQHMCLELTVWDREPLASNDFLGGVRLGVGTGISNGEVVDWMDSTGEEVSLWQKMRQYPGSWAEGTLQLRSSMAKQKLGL
UniProt Q96DG6: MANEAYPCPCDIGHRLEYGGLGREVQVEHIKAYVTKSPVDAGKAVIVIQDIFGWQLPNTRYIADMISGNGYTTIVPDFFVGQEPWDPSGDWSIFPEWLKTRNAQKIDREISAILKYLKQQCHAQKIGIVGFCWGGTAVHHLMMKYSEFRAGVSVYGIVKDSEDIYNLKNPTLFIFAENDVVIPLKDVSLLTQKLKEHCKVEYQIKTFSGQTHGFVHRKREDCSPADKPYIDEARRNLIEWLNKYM
UniProt Q96E11: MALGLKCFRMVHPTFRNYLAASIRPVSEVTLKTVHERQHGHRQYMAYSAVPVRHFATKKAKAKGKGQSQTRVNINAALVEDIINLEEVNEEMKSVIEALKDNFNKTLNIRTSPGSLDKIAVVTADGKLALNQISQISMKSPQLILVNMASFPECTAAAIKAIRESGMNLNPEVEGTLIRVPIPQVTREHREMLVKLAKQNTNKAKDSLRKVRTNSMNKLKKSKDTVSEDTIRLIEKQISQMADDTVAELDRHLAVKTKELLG
UniProt Q96EQ0: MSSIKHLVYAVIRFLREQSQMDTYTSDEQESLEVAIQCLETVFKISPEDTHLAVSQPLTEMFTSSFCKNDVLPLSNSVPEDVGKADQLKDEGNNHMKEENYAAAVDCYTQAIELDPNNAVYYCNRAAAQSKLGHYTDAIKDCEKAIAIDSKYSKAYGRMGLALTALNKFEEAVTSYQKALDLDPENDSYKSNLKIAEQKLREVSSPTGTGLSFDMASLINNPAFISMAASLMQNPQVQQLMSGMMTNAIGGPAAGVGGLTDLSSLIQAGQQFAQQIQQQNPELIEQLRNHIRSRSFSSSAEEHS
UniProt Q96ES7: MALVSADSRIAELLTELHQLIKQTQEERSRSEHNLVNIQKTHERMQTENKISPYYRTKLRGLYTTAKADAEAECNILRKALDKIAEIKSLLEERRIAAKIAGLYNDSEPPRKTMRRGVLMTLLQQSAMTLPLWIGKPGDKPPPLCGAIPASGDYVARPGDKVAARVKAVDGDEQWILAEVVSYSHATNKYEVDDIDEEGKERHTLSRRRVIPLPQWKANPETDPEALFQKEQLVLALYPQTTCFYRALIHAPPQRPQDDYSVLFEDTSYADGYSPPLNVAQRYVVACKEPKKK
UniProt Q96EX3: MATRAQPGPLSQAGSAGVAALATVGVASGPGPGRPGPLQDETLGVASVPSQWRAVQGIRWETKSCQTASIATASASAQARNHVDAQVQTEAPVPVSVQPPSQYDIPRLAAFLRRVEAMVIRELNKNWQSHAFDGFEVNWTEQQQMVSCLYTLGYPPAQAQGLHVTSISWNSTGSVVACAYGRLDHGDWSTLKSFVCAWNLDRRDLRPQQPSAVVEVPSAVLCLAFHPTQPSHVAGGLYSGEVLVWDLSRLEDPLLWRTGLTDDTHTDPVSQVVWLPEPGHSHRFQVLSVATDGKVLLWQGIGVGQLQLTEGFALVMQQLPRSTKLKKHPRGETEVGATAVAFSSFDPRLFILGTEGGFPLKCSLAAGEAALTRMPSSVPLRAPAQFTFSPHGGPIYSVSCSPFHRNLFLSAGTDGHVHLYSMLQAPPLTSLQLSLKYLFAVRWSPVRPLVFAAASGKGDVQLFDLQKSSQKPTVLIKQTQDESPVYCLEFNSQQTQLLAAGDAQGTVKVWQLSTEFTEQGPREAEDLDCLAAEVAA
UniProt Q96GI7: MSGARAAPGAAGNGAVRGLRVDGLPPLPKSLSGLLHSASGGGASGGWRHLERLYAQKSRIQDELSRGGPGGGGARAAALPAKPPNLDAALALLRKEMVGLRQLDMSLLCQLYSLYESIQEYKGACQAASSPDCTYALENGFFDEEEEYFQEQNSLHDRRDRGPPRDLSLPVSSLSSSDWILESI
UniProt Q96EV2: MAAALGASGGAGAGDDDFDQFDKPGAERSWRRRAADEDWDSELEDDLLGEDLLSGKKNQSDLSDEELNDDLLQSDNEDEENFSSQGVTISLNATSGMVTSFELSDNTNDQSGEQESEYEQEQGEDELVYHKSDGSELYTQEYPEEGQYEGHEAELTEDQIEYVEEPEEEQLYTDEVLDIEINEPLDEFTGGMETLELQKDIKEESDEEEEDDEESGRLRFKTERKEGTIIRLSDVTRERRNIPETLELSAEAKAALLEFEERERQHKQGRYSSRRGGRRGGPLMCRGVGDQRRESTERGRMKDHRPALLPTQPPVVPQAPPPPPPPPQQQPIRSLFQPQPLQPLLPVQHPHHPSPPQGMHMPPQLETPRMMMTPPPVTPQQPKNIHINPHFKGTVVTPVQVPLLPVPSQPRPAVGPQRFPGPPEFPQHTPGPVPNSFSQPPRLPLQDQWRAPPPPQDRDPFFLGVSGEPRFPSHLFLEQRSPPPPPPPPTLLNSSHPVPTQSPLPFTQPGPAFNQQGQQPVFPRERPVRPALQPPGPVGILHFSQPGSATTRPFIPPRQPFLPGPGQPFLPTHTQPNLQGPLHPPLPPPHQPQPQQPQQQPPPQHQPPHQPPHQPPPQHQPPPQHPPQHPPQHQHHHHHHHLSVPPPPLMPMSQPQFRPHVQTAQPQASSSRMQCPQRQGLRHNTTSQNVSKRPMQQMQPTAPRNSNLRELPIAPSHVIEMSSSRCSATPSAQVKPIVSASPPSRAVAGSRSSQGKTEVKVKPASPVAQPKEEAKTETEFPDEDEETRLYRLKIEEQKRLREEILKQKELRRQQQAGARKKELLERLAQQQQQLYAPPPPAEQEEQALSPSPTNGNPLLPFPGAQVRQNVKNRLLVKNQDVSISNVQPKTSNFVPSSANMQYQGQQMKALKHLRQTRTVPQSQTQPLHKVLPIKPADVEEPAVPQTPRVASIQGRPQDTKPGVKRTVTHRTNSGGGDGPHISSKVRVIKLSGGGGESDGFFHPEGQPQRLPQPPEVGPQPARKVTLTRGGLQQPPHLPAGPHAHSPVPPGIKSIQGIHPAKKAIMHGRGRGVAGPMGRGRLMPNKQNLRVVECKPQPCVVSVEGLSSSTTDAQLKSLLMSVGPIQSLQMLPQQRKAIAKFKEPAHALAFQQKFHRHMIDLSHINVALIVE
UniProt Q969T9: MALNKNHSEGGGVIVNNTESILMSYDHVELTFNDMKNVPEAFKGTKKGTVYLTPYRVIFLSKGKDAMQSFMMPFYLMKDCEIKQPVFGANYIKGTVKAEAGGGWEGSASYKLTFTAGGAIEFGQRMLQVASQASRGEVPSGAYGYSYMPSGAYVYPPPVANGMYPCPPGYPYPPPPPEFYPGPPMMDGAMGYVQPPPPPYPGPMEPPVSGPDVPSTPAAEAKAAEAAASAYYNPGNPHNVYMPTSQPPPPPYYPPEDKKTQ
UniProt Q93033: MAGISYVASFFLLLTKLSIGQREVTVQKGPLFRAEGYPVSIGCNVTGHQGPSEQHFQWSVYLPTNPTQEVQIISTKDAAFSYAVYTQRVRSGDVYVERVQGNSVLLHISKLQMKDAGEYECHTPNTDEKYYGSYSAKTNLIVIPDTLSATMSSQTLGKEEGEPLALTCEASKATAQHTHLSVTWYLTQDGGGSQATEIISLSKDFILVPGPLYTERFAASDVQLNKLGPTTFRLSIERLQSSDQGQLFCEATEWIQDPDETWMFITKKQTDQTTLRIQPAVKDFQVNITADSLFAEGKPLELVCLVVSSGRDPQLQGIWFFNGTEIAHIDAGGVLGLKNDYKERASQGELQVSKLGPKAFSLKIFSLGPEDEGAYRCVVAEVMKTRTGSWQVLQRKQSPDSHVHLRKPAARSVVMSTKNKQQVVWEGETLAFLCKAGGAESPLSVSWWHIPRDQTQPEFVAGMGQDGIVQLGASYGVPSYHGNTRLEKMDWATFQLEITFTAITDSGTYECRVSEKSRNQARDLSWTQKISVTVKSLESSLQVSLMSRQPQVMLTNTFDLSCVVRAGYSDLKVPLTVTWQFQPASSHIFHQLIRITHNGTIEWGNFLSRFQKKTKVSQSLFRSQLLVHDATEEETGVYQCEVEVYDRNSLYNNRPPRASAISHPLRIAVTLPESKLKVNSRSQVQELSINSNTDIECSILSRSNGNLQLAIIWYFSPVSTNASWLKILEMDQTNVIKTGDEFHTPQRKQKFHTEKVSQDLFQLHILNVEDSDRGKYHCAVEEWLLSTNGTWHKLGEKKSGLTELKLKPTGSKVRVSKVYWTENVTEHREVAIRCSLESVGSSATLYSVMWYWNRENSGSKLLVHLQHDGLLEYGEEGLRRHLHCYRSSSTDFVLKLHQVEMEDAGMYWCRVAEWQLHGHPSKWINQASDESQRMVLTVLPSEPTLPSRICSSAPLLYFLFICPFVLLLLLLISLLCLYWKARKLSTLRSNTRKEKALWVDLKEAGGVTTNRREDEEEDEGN
UniProt Q96A33: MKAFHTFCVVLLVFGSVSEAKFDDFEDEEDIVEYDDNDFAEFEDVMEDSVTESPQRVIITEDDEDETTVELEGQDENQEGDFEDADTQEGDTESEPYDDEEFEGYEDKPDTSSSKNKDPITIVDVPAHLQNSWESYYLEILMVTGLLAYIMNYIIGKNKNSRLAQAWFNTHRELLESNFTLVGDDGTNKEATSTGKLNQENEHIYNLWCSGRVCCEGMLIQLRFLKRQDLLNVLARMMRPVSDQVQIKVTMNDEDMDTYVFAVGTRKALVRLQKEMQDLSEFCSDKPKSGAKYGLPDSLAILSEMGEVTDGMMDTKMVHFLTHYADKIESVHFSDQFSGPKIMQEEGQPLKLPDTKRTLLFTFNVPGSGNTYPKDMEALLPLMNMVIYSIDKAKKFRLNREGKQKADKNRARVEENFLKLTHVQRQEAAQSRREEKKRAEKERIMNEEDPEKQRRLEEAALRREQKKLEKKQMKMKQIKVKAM

Compound: CN[C@@H]1C[C@H]2O[C@@](C)([C@@H]1OC)n1c3ccccc3c3c4c(c5c6ccccc6n2c5c31)C(=O)NC4 [staurosporine]
Assay: log2 fold change of tryptic peptide abundance, ligand vs vehicle (limited proteolysis) (log2 ratio); higher = more trypsin-susceptible (destabilized)
Settings: ligand concentration: 20 uM; sample: K562 cleared lysate; digestion: 4 min, 22 C (HT-PELSA RT4min, Orbitrap Astral)

Target | log2 fold change
MTFMT (peptide sequence: FPYGILNVHPSCLPR, peptide start residue: 138) (UniProt Q96DP5) | 0.193
FAF2 (peptide sequence: FQIEANFPR, peptide start residue: 401) (UniProt Q96CS3) | 0.169
UniProt Q92841 (peptide sequence: RCDDLTRR, peptide start residue: 430) | 0.587
RMND5B (peptide sequence: CWYHSVFACPILR, peptide start residue: 330) (UniProt Q96G75) | -0.0895
UniProt Q969W8 (peptide sequence: AFSSGSNFTR, peptide start residue: 263) | -0.151
SEH1L (peptide sequence: VWDKSESGDWHCTASWK, peptide start residue: 38) (UniProt Q96EE3) | -0.485
SYTL4 (peptide sequence: QKEPSVLFEVPK, peptide start residue: 176) (UniProt Q96C24) | -0.366
CMBL (peptide sequence: NLIEWLNK, peptide start residue: 236) (UniProt Q96DG6) | -0.167
AKT1S1 (peptide sequence: LNTSDFQK, peptide start residue: 244) (UniProt Q96B36) | -0.06
UniProt Q96G23 (peptide sequence: SRPLANGHPILNNNHR, peptide start residue: 362) | -0.11
UniProt Q92879 (peptide sequence: FADTQKDKEQK, peptide start residue: 185) | -0.599
MRRF (peptide sequence: TSPGSLDKIAVVTADGK, peptide start residue: 111) (UniProt Q96E11) | 0.254
SMARCE1 (peptide sequence: SRAEAALEEESR, peptide start residue: 147) (UniProt Q969G3) | -0.196
VTI1A (peptide sequence: AHLLDNTER, peptide start residue: 116) (UniProt Q96AJ9) | 0.141
SGTB (peptide sequence: LGHYTDAIK, peptide start residue: 132) (UniProt Q96EQ0) | 0.329
UniProt Q96ES7 (peptide sequence: SRSEHNLVNIQK, peptide start residue: 29) | 0.804
WDR34 (peptide sequence: MPSSVPLR, peptide start residue: 374) (UniProt Q96EX3) | 0.32
UniProt Q96DF8 (peptide sequence: DPFSQALSR, peptide start residue: 254) | 0.177

Target | log2 fold change
FAM89A (peptide sequence: IQDELSR, peptide start residue: 60) (UniProt Q96GI7) | -0.21
RAD50 (peptide sequence: LMRQDIDTQKIQER, peptide start residue: 1003) (UniProt Q92878) | 0.791
RBM33 (peptide sequence: GTVVTPVQVPLLPVPSQPR, peptide start residue: 393) (UniProt Q96EV2) | -0.347
TMEM159 (peptide sequence: AKEEPQSISR, peptide start residue: 2) (UniProt Q96B96) | -0.0538
ADAT3 (peptide sequence: EVSALHPLPAQPHLK, peptide start residue: 62) (UniProt Q96EY9) | 0.276
ITPKC (peptide sequence: THEVVGSSLLFVHDHTGLAK, peptide start residue: 614) (UniProt Q96DU7) | 0.236
LSM10 (peptide sequence: LDDLFVTGR, peptide start residue: 69) (UniProt Q969L4) | -0.453
WBP2 (peptide sequence: MLQVASQASR, peptide start residue: 126) (UniProt Q969T9) | 0.171
UniProt Q96CS2 (peptide sequence: GMDASLSHQSLVALSEKLAR, peptide start residue: 207) | -0.509
OTUD5 (peptide sequence: ESYLQWLRDQEK, peptide start residue: 405) (UniProt Q96G74) | 0.721
MBD6 (peptide sequence: AQAPSASHSSSLRPSQR, peptide start residue: 348) (UniProt Q96DN6) | 0.436
TBC1D20 (peptide sequence: EAAAQQQAER, peptide start residue: 310) (UniProt Q96BZ9) | -0.485
UniProt Q93033 (peptide sequence: LGPKAFSLK, peptide start residue: 355) | -0.28
NACC2 (peptide sequence: DGVAVAAGAAVAAGTAPLKLPR, peptide start residue: 199) (UniProt Q96BF6) | -0.191
NMD3 (peptide sequence: ELLALCLK, peptide start residue: 77) (UniProt Q96D46) | 0.223
CCDC47 (peptide sequence: IMNEEDPEKQR, peptide start residue: 444) (UniProt Q96A33) | -0.134
SMARCD2 (peptide sequence: CTLLLMLDHQPPQYK, peptide start residue: 298) (UniProt Q92925) | -0.404
UniProt Q96A08 (peptide sequence: ESYSIYIYK, peptide start residue: 37) | -0.205

Some of the entries above in another layout.
MRRF (peptide sequence: TSPGSLDKIAVVTADGK, peptide start residue: 111) (UniProt Q96E11)
  log2 fold change: 0.254
OTUD5 (peptide sequence: ESYLQWLRDQEK, peptide start residue: 405) (UniProt Q96G74)
  log2 fold change: 0.721
